This is an account of results in publication PMC7210271.

Data set [1] concerns DNMT3A R882H MTase domain + DNMT3L C-terminal domain. The experiment in a line: EMSA. To be noted: 0-600 nM protein, 20 nM DNA, significantly reduced shift; EMSA: 50 mM Tris-HCl pH 7.5, 5% glycerol, 1 mM DTT, gel run at 4 C; recombinant protein; protein details: N-terminal His6-SUMO removed by ULP1. (A gel shift assay detects complexes by their altered migration in electrophoresis.)

In data set [2] the test system is DNMT3A WT MTase domain + DNMT3L C-terminal domain. Briefly: EMSA. To be noted: 0-600 nM protein, 20 nM DNA, multiple shifted bands; EMSA: 50 mM Tris-HCl pH 7.5, 5% glycerol, 1 mM DTT, gel run at 4 C; recombinant protein; protein details: N-terminal His6-SUMO removed by ULP1.

Construct, isoform or probe ends are uncertain for at least one entry. For some assays here: Weaker means in comparison with the reference protein, sequence or condition of that experiment.

With “GACGACGACGACGACGACGACGACGACGACGACGAC (double strand) [36-mer (GAC)12 DNA]”, the figures for the binding result in data set [1] and in data set [2] were “binds more weakly” and “binds”, respectively.
